This test concerns the target TTI2_Q6NXR4_270_ILGVHCLHHIVLNVPAADLLQYNR (UniProt Q6NXR4). The test is described as follows: probe-labelled cysteine peptide fold change vs DMSO (competition) (log2 fold change); higher = less target engagement (more negative = stronger competition). The note with it: THP-1, incubation time: 4 h.

Sequences of proteins named here, by UniProt entry; tags and fusion partners are left off. A change or cut given only in a name is not applied to a line headed by its entry.
UniProt Q6NXR4: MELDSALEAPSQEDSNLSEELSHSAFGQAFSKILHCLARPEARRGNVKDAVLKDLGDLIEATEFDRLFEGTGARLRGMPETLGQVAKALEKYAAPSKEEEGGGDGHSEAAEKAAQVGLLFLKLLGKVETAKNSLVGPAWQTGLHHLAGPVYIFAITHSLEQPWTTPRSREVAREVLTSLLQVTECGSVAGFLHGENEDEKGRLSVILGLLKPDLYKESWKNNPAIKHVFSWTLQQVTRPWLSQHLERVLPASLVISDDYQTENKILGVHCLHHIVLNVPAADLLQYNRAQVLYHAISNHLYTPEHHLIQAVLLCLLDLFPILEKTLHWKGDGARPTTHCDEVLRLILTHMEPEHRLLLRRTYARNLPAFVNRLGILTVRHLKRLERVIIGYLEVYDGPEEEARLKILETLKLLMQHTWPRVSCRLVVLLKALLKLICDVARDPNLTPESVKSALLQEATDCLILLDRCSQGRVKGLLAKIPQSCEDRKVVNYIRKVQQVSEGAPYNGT

This is one part of the list.
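Also: competitive profiling in live THP-1 cells: cysteine peptides tagged with an iodoacetamide desthiobiotin (IA-DTB) probe, intensity after compound treatment relative to DMSO-treated cells.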

Consider `Cc1cc(C(=O)N2CCCN(C(=O)CCl)CC2)ccc1-c1ccccc1` [compound 10], for which the “probe-labelled cysteine peptide fold change” value reads like this: (10 µM) 0.268; (50 µM) 0.174.
